# Laboratory results published in PubChem BioAssay AID687031 (Broad Institute, 2013).
# Out of some 1,400 compounds screened, about 50 (4%) were called active. The shares of active, inactive and inconclusive entries below differ from those in the screen.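 Rule for the calls: active = fitted curve reaches 30% CPE protection at or below the top valid dose, with every test run called active; inconclusive = test runs disagree, some active and some not; inactive = every test run inactive, including effects in the wrong direction.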
# Assay: antiviral rescue of DENV2-infected BHK-21 cells – cell-based, ATP luminescence, cherry-pick, dose response (AID 687031);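 note: 0% = infected DMSO wells and 100% = uninfected cell wells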
# Conditions: BHK-21 DENV2 CPE protection, 5 d; at 19.5 µM (top of the series) unless noted
row,Compound,CPE protection (higher = active)
1,Cc1cnc(CNC(=O)C2CCC(=O)N(Cc3ccc(Cl)cc3)C2)[nH]1 (stereo unspecified),inactive: -5.86%
2,O=C(CN1CCC(O)(c2cccc(C(F)(F)F)c2)CC1)NCCc1ccccc1,inconclusive: 20.3%
3,CO[C@@H]1CN(C)C(=O)c2ccc(NS(=O)(=O)c3cccc(F)c3)cc2OC[C@@H](C)N(C(=O)Cc2cccnc2)C[C@H]1C,inconclusive: 17.2% [at 18 µM]
4,O=C(CC1S/C(=N/N=C/c2c[nH]c3ccccc23)NC1=O)Nc1ccccc1 (stereo unspecified),inconclusive: 19.3%
5,O=C(NCCNC(=O)c1cc(F)cc(F)c1)c1cc(F)cc(F)c1,inconclusive: 14.9%
6,COc1ccc(S(=O)(=O)N2CCC(C(=O)N[C@H](C(=O)NCc3ccccc3)C(C)C)CC2)cc1,inconclusive: 8.85%
7,C[C@H]1CCCCO[C@H](CN(C)S(=O)(=O)c2ccc(Cl)cc2)[C@@H](C)CN([C@@H](C)CO)C(=O)c2cc(NC(=O)Cc3ccccc3)ccc2O1,inconclusive: -17.1%
8,CCNC(=O)C[C@H]1CC[C@H]2[C@@H](COC[C@@H](O)CN2C(=O)C2CCCC2)O1,inconclusive: 14.7%
9,COc1ccc(C(C(=O)NC2CCCC2)N2CCc3ccccc32)cc1 (stereo unspecified),inconclusive: 23.9%
10,O=S(=O)(NN=Cc1cccc(Cl)c1)c1ccccc1,inactive: -10.2%
11,CN(CC(=O)Nc1ccc(Cl)cc1)C(=O)CCc1nc2sc3c(c2c(=O)[nH]1)CCCC3,inactive: -2.63%

# Part of the list above, as tab-separated lines.
row	Compound	CPE protection (higher = active)
8	CCNC(=O)C[C@H]1CC[C@H]2[C@@H](COC[C@@H](O)CN2C(=O)C2CCCC2)O1	inconclusive: 14.7%
9	COc1ccc(C(C(=O)NC2CCCC2)N2CCc3ccccc32)cc1 (stereo unspecified)	inconclusive: 23.9%
